In paper PMC3149277:

What was measured:
[1] = biological target: T1, human iRhom1 (Rhbdf1), C-terminal triple HA tag (human) (UniProt Q96CC6); assay: co-IP; HA-tagged iRhoms and FLAG-tagged proteins coexpressed in HEK293 ET cells; lysis in 1% Triton X-100, 150 mM NaCl, 50 mM Tris-HCl pH 7.4; iRhoms immunoprecipitated with anti-HA affinity gel, 1 h at 4°C; washes with 300 mM NaCl; FLAG-tagged co-precipitated proteins detected by Western blot
T1 sequence: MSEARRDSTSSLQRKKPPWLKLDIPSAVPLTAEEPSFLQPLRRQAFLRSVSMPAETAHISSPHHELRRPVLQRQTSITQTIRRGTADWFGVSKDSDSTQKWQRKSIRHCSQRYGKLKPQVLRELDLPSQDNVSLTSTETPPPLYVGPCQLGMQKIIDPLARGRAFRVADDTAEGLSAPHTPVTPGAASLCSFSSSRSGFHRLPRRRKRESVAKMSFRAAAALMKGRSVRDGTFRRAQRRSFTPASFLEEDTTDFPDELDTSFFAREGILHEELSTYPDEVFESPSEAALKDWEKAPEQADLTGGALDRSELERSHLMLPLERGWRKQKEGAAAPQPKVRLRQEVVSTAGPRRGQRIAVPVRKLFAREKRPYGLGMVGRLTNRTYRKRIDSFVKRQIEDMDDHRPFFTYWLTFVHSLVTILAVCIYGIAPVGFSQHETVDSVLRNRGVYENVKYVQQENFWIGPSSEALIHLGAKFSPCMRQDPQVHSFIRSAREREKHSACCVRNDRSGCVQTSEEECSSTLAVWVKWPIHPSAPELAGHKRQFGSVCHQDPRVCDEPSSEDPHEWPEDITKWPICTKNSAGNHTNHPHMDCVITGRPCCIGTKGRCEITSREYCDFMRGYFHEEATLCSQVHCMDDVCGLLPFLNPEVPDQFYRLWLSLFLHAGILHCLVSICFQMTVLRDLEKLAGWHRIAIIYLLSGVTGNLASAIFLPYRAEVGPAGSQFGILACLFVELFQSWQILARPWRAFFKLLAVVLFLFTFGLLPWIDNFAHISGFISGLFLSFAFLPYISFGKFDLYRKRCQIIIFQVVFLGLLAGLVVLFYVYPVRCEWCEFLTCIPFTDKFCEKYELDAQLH

[2] = biological target: T2, mouse iRhom2 (Rhbdf2), C-terminal triple HA tag (mouse) (UniProt Q80WQ6); assay: as above
T2 sequence: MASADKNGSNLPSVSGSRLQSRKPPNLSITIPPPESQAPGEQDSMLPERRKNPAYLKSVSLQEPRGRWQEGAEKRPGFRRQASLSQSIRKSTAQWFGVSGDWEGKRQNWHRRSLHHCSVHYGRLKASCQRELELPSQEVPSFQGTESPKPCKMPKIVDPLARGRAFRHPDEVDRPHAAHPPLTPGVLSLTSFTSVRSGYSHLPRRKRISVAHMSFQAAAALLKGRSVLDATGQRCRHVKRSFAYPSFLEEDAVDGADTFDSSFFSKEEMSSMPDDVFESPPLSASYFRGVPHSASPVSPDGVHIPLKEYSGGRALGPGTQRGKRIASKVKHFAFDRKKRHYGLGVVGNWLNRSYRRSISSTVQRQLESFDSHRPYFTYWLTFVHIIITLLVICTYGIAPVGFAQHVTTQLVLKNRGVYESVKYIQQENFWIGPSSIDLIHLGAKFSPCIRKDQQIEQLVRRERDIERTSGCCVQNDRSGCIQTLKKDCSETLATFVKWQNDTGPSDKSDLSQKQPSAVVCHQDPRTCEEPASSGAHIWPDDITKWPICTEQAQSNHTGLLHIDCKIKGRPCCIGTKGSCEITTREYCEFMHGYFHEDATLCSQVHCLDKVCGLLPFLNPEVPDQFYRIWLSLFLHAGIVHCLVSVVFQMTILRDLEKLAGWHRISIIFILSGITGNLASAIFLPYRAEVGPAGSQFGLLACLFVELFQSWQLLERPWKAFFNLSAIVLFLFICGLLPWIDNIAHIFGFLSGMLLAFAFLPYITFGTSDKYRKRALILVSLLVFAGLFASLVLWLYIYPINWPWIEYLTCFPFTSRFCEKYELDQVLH

binding [1]: no binding
binding [2]: no binding
Substance: Flag-tagged mouse TGN36

These are yes or no findings as the source states them, for the method shown. In cells and extracts the contact can be indirect. Sequences can lack the tags named with a protein.
